This note sets out measurements from PMC6488099.

Chains of the proteins cited; added tags and fusions are not shown. Residues count along the entry.
UniProt P11021, residues 19-654: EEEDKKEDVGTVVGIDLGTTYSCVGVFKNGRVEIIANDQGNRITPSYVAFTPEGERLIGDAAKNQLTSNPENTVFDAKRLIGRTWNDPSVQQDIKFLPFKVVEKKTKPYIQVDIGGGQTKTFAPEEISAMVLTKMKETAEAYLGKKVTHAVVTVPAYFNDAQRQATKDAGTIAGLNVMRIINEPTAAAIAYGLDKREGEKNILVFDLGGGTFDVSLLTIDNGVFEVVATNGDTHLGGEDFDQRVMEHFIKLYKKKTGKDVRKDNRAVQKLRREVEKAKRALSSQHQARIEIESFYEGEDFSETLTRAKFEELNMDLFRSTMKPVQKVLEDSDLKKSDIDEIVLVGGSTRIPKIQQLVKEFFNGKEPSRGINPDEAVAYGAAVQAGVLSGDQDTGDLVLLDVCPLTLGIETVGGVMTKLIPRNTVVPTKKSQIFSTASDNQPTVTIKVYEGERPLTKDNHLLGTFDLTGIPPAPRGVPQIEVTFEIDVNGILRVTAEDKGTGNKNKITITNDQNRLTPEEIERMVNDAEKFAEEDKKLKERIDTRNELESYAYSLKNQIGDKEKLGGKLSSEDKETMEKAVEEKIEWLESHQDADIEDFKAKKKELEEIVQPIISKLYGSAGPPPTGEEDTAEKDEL

Results are given in words; binding and its absence hold for the method and conditions named. Binding seen in cells or lysates may run through a third protein. Some entries that bind do so weakly or less than the wild type. For some assays here: Tags and fused reporters may be left off the sequences shown.

One experiment concerns the target T1, HA-tagged P0-S63del (UniProt P27573).
T1 sequence: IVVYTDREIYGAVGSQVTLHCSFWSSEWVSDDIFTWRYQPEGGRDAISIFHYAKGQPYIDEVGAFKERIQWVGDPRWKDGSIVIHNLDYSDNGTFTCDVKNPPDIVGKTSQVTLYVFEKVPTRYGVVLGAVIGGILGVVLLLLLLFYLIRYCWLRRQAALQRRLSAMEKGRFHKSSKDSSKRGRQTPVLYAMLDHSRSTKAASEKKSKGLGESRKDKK
As to the kind of experiment: co-IP; induced HEK293 cells treated 3 hr with/without the proteasome inhibitor PS341 before lysis; HA-tagged P0s immunoprecipitated, Western blot for BiP (anti-KDEL antibody) or CNX. (Immunoblotting shows a protein as a band on a membrane.)

Experiment [1] addresses T2, Derlin-2 (mouse (endogenous in sciatic nerve)) (UniProt Q8BNI4).
T2 sequence: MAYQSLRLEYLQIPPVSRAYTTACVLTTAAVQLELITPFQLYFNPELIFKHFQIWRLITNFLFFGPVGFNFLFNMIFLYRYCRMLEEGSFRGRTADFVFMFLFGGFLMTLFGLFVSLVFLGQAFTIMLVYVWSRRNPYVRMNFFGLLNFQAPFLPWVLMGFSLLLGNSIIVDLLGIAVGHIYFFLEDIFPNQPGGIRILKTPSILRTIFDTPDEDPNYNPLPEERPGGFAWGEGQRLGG
In words: co-IP; P28 WT and S63del mouse sciatic nerve lysates; immunoprecipitation with anti-Derlin-1 or anti-Derlin-2 antibodies, Western blot for P0; n = 2.

The target of experiment [2] is T3, Calnexin (CNX) (human (endogenous in HEK293)) (UniProt P27824).
T3 sequence: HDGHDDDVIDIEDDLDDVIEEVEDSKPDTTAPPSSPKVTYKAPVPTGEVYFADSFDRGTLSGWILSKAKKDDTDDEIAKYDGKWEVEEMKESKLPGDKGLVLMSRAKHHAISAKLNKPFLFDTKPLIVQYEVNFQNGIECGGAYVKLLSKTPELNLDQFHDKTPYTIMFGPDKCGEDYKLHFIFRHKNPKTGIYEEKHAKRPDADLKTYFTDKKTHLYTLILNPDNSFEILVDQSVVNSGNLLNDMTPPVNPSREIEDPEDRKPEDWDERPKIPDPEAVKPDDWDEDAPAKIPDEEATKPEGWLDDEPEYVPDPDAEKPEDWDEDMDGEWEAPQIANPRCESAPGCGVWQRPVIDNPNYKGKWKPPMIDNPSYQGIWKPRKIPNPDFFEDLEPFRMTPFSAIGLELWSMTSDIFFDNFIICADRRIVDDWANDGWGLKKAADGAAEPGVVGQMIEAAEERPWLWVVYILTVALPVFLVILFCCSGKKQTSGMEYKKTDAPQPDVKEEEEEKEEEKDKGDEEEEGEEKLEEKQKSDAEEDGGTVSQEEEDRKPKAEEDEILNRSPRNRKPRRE
In words: co-IP; pulse-chase ([35S]-methionine/cysteine, chase 10 min, 120 min or 120 min with PS341) on HEK293 cells induced 17 hr; first immunoprecipitation against BiP or CNX, immunocomplexes dissociated, P0 re-immunoprecipitated with anti-HA; SDS-PAGE; said to reveal only stable interactions.

Experiment [3] has as its target binding immunoglobulin protein (BiP) (human (endogenous in HEK293)) (UniProt P11021). The experiment is described as above.

For “binding immunoglobulin protein (BiP) (from UniProt P11021 19-654)”, in the experiment with HA-tagged P0-S63del, the binding entry is reported as “binds”.

B1: myelin protein zero (P0), wild type, in WT mouse sciatic nerve (protein, UniProt P27573 30-248)
chain: IVVYTDREIYGAVGSQVTLHCSFWSSEWVSDDISFTWRYQPEGGRDAISIFHYAKGQPYIDEVGAFKERIQWVGDPRWKDGSIVIHNLDYSDNGTFTCDVKNPPDIVGKTSQVTLYVFEKVPTRYGVVLGAVIGGILGVVLLLLLLFYLIRYCWLRRQAALQRRLSAMEKGRFHKSSKDSSKRGRQTPVLYAMLDHSRSTKAASEKKSKGLGESRKDKK
As for B1, the binding entry in experiment [1] is on record as “binds”.

B2: HA-tagged P0-S63del (protein, UniProt P27573 30-248)
chain: T1 sequence
In the case of B2, the binding entry in experiment [2] and in experiment [3] was “binds” throughout.

B3: Calnexin (CNX) (protein, UniProt P27824 21-592)
chain: T3 sequence
On to B3, for which the binding entry with HA-tagged P0-S63del is listed as “binds”.
